A: 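Protease assay of ClpP1P2, read by the AMC dye that it sets free. Target: ClpP1P2, Mycobacterium tuberculosis (UniProt P9WPC5 and UniProt P9WPC3). Compounds at 50 µM. Direction is inferred from only a few compounds that gave an IC50; most scored high, so higher reads as stronger inhibition. Most other retested compounds had strongly negative values. About 69,000 compounds were tested under these conditions; 0.015% (about 10) showed 50% or more at least once.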
B: 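Polyketide synthase Pks13, Mycobacterium tuberculosis (UniProt I6X8D2). Enzyme assay of the thioesterase domain of polyketide synthase 13; the read-out is not stated. Concentration: 30 µM. The record gives no direction; the compounds picked for IC50 retests had high values, so higher reads as stronger inhibition. About 67,000 compounds were tested under these conditions; 0.46% (about 300) showed 50% or more at least once.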
C: 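Enzyme assay of CoaBC with a phosphate dye (Biomol Green) read at 650 nm. Target: Coenzyme A biosynthesis protein CoaBC, Mycobacterium tuberculosis (UniProt P9WNZ1). Compounds at 30 µM. Direction is inferred from only a few compounds that gave an IC50; most scored high, so higher reads as stronger inhibition. Most strong results did not repeat in a second test. About 67,000 compounds were tested under these conditions; 0.06% (about 40) showed 50% or more at least once.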
D: 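Enzyme assay of histidyl-tRNA synthetase; the read-out is not stated. Target: Histidine-tRNA ligase, Leishmania infantum (UniProt A4I591). Compounds at 30 µM. Higher reads as stronger inhibition (inferred: compounds with an IC50 in retests scored well above the rest). The assay is labelled LdHisRS but filed under L. infantum. Of about 69,000 compounds tested this way, about 410 (0.6%) reached 50% or more in at least one test.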
E: 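Histidine-tRNA ligase, Trypanosoma cruzi CL Brener (UniProt Q4DA54). Enzyme assay of histidyl-tRNA synthetase; the read-out is not stated. Compounds at 30 µM. Direction is inferred from retests: higher values go with stronger inhibition. About 69,000 compounds were tested under these conditions; 0.045% (about 31) showed 50% or more at least once.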

By UniProt entry, the sequences of proteins in these tests, tags left out. Residues count along the entry.
UniProt P9WPC5, whole entry: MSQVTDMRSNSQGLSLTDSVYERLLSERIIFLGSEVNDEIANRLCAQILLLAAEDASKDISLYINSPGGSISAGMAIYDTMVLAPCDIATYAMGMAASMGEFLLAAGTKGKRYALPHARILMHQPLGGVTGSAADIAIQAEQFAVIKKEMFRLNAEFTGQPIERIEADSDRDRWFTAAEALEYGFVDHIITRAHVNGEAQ
UniProt P9WPC3, whole entry partner: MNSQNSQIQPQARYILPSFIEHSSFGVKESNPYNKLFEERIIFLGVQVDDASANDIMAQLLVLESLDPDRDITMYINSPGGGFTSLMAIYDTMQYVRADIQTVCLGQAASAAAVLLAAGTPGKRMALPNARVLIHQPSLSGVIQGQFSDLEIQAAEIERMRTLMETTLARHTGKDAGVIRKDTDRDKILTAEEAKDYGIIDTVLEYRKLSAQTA
UniProt I6X8D2, whole entry: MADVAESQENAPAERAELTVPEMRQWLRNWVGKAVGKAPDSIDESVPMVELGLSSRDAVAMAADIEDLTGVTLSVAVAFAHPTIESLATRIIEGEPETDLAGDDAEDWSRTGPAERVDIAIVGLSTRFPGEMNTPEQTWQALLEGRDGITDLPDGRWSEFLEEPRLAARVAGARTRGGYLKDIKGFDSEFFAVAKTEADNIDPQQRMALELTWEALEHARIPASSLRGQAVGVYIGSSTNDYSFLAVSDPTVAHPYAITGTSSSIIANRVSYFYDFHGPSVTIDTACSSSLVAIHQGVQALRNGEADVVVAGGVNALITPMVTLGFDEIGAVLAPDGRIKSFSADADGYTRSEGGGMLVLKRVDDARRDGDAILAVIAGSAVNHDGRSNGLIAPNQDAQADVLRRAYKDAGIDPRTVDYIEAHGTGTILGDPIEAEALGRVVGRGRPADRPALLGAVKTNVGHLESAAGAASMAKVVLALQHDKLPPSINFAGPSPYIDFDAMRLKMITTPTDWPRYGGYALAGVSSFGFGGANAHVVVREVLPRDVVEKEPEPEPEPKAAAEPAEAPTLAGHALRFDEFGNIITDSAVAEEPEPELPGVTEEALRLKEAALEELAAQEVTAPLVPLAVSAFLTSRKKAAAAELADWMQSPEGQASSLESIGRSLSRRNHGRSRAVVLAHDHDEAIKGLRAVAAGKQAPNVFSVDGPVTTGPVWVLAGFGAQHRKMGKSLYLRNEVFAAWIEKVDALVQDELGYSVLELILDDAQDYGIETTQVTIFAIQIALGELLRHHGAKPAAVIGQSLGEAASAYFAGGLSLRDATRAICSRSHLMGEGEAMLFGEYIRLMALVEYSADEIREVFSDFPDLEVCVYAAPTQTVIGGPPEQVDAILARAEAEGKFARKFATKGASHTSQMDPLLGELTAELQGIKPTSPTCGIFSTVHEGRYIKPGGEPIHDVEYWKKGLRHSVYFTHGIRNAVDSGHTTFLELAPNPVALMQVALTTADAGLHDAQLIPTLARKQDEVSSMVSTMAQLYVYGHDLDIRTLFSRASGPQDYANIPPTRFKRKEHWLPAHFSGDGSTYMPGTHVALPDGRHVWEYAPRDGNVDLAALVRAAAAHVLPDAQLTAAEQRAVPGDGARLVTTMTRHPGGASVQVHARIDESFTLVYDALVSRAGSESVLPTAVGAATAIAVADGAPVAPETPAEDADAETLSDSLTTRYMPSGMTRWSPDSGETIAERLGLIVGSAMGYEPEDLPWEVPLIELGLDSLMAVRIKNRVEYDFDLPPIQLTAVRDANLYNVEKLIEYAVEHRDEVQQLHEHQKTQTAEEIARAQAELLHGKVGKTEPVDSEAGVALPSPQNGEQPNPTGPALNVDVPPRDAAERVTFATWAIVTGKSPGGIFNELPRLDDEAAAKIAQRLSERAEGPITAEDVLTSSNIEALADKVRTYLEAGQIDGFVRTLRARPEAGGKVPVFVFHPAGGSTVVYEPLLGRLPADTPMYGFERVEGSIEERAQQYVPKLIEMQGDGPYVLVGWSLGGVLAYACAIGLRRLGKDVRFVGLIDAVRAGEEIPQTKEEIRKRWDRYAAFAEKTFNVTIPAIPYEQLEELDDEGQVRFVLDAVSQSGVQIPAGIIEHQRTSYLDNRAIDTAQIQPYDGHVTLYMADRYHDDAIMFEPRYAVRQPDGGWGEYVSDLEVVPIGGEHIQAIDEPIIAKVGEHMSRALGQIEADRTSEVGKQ
UniProt P9WNZ1, whole entry: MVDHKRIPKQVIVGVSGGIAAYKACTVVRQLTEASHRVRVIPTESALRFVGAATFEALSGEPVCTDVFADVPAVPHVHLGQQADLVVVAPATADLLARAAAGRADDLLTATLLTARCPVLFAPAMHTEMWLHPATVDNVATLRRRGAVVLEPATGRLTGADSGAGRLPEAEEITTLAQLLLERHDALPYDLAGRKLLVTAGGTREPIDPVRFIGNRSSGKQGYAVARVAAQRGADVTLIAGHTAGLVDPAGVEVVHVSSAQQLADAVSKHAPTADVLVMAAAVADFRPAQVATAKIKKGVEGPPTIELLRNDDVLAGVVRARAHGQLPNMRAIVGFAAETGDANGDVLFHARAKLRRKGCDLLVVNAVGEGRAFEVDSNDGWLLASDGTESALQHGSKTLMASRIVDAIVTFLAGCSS
UniProt A4I591, 1-473: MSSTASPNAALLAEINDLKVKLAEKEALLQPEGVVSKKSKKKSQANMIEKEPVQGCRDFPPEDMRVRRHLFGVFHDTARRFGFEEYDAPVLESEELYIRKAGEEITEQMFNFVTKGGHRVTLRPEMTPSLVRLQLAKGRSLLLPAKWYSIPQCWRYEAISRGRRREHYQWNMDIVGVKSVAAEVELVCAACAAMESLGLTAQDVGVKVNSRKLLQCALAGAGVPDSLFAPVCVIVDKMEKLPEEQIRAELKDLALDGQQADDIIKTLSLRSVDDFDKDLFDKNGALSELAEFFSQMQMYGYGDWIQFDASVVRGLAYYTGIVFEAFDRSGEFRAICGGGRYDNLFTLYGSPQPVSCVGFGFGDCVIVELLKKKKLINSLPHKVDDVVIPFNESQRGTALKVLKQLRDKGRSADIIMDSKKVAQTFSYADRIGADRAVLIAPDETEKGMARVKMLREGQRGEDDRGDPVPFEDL
UniProt Q4DA54, 1-478: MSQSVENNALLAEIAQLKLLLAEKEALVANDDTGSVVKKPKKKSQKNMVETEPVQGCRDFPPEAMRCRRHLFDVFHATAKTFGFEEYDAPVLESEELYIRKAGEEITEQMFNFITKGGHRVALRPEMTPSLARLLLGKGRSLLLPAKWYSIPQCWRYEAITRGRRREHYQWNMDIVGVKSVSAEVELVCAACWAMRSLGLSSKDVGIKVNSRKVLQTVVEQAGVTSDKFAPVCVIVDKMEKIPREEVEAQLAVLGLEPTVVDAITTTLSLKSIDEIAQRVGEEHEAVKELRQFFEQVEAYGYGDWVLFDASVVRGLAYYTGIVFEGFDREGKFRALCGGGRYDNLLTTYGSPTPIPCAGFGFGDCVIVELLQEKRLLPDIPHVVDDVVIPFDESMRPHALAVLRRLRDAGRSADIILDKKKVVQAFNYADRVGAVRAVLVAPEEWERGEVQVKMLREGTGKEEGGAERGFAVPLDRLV

Values are the deposited “Percent Effect”, in %.
How 0% and 100% were set is not recorded. Most values in the screen are low, and negative values occur.
This is an unselected part of the compounds tested.

CN(C)CCN(Cc1ccc(C(F)(F)F)cc1)C(=O)c1cc[nH]n1 read A: -4.111%; B: -19.71%; C: -23.72%; D: 20.55%; E: 9.852%.
O=C(c1ncccn1)N1C[C@@H]2CN(Cc3cccnc3)CCO[C@@H]2C1 read A: 3.238%; B: -10.8%; C: 7.563%; D: 18.18%; E: 9.091%.
CC(CO)NC(=O)Nc1ccc(S(C)(=O)=O)nc1 (stereo unspecified) read A: -24.29%; B: -30.98%; C: 0%; D: -16.51%; E: 5.294%.
CCc1oc(C(=O)NCCc2cc(O)nc(C)n2)cc1CN1CCCC1 read A: -7.889%; B: -38.95%; C: -1.653%; D: -2.667%; E: 0.5435%.
CC(C)c1ccc(CN2CCC(CNS(=O)(=O)C3CC3)C2)cc1 (stereo unspecified) read A: 1.232%; B: -20.39%; C: -14.2%; D: 19.35%; E: 7.853%.
COc1c(CNCCC(=O)NC2CCCC2)c(C(C)C)nn1C read A: -24.71%; B: -25.38%; C: 9.068%; D: 16.96%; E: 5.78%.
O=C(NCc1nncn1C1CCCCC1)C1COc2ccccc2C1 (stereo unspecified) read A: 3.647%; B: -21.8%; C: 5.144%; D: 13.11%; E: 2.146%.
CN(CCCNC(=O)N1CCCC1c1ccsc1)c1ccccn1 (stereo unspecified) read A: 25.52%; B: -13.24%; C: 4.096%; D: 30.14%; E: -2.29%.
Cc1cc(NC(=O)CN2CCCC2c2noc(C(C)C)n2)n(C)n1 (stereo unspecified) read A: 6.065%; B: -9.421%; C: 4.302%; D: 1.351%; E: 0.3774%.
CC(C)CN1CCN(C)C2(CCN(Cc3ccsc3)CC2)C1=O read A: 5.717%; B: 2.139%; C: 3.869%; D: 12.2%; E: 6.767%.
COC(=O)c1ccc(S(=O)(=O)N(C)CC(N)=O)c(Cl)c1 read A: -14.6%; B: 1.554%; C: 0.8485%; D: 9.677%; E: 1.02%.
CCC(=O)N1CCC2(CC1)CC(N1CCOCC1)c1cc(C)ccc12 (stereo unspecified) read A: 7.052%; B: 4.992%; C: -1.449%; D: -1.01%; E: 5.806%.
COc1ccc(C)cc1CCNS(C)(=O)=O read A: 1.251%; B: -44.23%; D: 25.71%; E: 6.494%.
CC(C#N)CNC(=O)Nc1ccc(-c2cc[nH]n2)cc1 (stereo unspecified) read A: 1.5%; B: -37.75%; D: 26.76%; E: 5.732%.
Cc1noc(C)c1-c1nc(N(C)CCN(C)C)ncc1-c1cnccn1 read A: 1.378%; B: -4.883%; C: -3.893%; D: 5.263%; E: 0.7463%.
Cc1cc(C)cc(OCC(=O)NC2CCN(S(C)(=O)=O)CC2)c1 read A: 10.05%; B: 2.076%; C: -1.054%; D: -9.375%; E: 1.901%.
Cc1ccc(C(=O)NCc2ccc(N3CCCC(C(N)=O)C3)cc2)o1 (stereo unspecified) read A: -2.227%; B: -13.14%; C: 0.8906%; D: 6.087%; E: 0.5634%.
COCCN(C)C(=O)Nc1ccc2c(ccn2CC(=O)N(C)C)c1 read A: -22.44%; B: 9.248%; C: 5.263%; D: 11.32%; E: 3.333%.
CCOC(=O)c1n[nH]cc1-c1cncn1CC(C)n1nc(C)cc1C (stereo unspecified) read A: -13.4%; B: 1.586%; C: -0.3708%; D: 8.966%; E: 1.521%.
COC(=O)Cn1ccc(=O)c2ccc(OC)cc21 read A: 15.79%; B: -0.6246%; C: 7.283%; D: 8.929%; E: -13.16%.
CC1(C)C(C(=O)NCCC2CN(Cc3c[nH]cn3)CCO2)C1(C)C (stereo unspecified) read A: -6.855%; B: -4.356%; C: 2.941%; D: 24.44%; E: 0%.
CCc1c(C)nc2ccccc2c1N1CCC(C(=O)NC)CC1 read A: 7.282%; B: -56.66%; C: 1.653%; D: 12%; E: -2.89%.
Cn1cc(Br)cc1C(=O)NC1(C#N)CC1 read A: -5.418%; B: -5.971%; D: 5.714%; E: 1.299%.
CC(C)COCC1CN(Cc2ccco2)Cc2ncn(C)c21 (stereo unspecified) read A: -9.977%; B: -7.222%; C: -1.713%; D: 17.81%; E: 4%.
Cc1cnn(CC2CN(Cc3cccc(OC(C)C)c3)CCO2)c1 (stereo unspecified) read A: -34.45%; B: 7.223%; C: -0.129%; D: 13.91%; E: 7.471%.
CCn1c(C2CCNCC2)nn(CCn2ccc(C)n2)c1=O read A: 9.654%; B: -5.377%; C: 5.178%; D: 15.29%; E: 8.04%.
N#CC(NC(=O)c1cccc2c1OCCO2)c1ccc(F)cc1F (stereo unspecified) read A: -1.056%; B: -26.98%; C: 4.418%; D: 16.42%; E: -2.128%.
Fc1cnc(N2CCO[C@H]3[C@H](OCC4CCOCC4)CC[C@@H]32)nc1 read A: -7.323%; B: -9.603%; C: 5.198%; D: 15.32%; E: 3.315%.

2 of the entries, repeated:

* CC(C)COCC1CN(Cc2ccco2)Cc2ncn(C)c21 (stereo unspecified) | A: -9.977%; B: -7.222%; C: -1.713%; D: 17.81%; E: 4%
* CC(C)c1ccc(CN2CCC(CNS(=O)(=O)C3CC3)C2)cc1 (stereo unspecified) | A: 1.232%; B: -20.39%; C: -14.2%; D: 19.35%; E: 7.853%

Source: ChEMBL document CHEMBL3988442, “University of Dundee, Small-Polar-MMV Screening Library” (2021).